From PMC7314967 come the findings set out here.

Results are given in words; binding and its absence hold for the method and conditions named. Binding seen in cells or lysates may run through a third protein. Some binding calls cover weakened binding; strength is not graded here.

Experiment [1] has as its target STOMATAL CYTOKINESIS … 2/RIPENING-REGULATED PROTEIN 1 (SCD2/RRP1), YFP^C fusion for BiFC (Arabidopsis thaliana) (UniProt Q8RWD5). Nature of the experiment: split reporter; BiFC with split YFP (pSPYNE/pSPYCE) in N. benthamiana leaf epidermal cells after Agrobacterium infiltration; YFP read by confocal microscopy.
Experiment [2] concerns the target SCD2/RRP1 with Flag tag for co-immunoprecipitation (Arabidopsis thaliana) (UniProt Q8RWD5). Kind of experiment: co-IP; Arabidopsis protoplasts co-transformed, 14-16 h; lysate precipitated with anti-Flag agarose 2 h at 4 °C; blots with anti-Flag and anti-GFP.
The target of experiment [3] is SCD2/RRP1, cLUC fusion for luciferase complementation (Arabidopsis thaliana) (UniProt Q8RWD5). Kind of experiment: split reporter; firefly luciferase complementation imaging in N. benthamiana leaves; 0 or 100 uM ABA sprayed for 6 h before 1 mM luciferin; weaker signal with ABA.

Take “ABA … 1 (ABI1), YFP^N fusion for BiFC (from UniProt P49597 1-434)”: the binding result in experiment [1] is reported as “binds”. Turning to “ABI1 with GFP tag for co-immunoprecipitation (from UniProt P49597 1-434)”, the binding entry in experiment [2] was “binds”.

On to “ABI1, nLUC fusion for luciferase complementation (from UniProt P49597 1-434)”, for which, in experiment [3], the binding entry is “binds”. In the case of “PYR1 with GFP tag for co-immunoprecipitation (from UniProt O49686 1-191)”, the binding result in experiment [2] is on record as “binds”. In the case of “PYRABACTIN … 1 (PYR1), YFP^N fusion for BiFC (from UniProt O49686 1-191)”, the binding entry in experiment [1] is on record as “binds”.
